Test results taken from publication PMC7350202.
These are yes or no findings as the source states them, for the method shown. In cells and extracts the contact can be indirect. Some results given as binding are weak or reduced against the parent protein; the word gives no strength.

Amino acid sequences for entries named in this document (tags omitted).
UniProt P03372: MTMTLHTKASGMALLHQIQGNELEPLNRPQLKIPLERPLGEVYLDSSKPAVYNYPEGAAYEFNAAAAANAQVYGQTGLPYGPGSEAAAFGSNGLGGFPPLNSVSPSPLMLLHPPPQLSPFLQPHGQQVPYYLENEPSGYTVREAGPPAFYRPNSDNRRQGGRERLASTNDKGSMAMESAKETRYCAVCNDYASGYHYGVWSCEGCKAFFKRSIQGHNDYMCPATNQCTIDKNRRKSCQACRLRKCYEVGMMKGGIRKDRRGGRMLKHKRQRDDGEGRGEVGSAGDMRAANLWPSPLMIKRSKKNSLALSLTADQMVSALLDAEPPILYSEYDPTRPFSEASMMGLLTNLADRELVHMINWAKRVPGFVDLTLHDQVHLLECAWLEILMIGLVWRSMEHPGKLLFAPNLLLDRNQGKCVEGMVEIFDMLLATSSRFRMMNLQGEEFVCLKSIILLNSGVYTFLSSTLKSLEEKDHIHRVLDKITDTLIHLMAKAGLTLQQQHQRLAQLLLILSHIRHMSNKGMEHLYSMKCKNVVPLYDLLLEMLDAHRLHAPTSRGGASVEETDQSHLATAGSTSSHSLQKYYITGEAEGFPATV

Biological target: Estrogen receptor alpha (human (endogenous in MCF-7)) (UniProt P03372)
Experiment: proximity ligation; Duolink PLA on fixed, permeabilised MCF-7 cells with anti-FXR and anti-ER primary antibodies; cells in steroid-free medium, untreated control or CDCA 2 10^-5 M for 30 s to 1 h; confocal microscopy, signal quantified by image analysis on four independent cultures

B1: Farnesoid X receptor (protein, UniProt Q96RI1 1-486)
chain: MVMQFQGLENPIQISPHCSCTPSGFFMEMMSMKPAKGVLTEQVAGPLGQNLEVEPYSQYSNVQFPQVQPQISSSSYYSNLGFYPQQPEEWYSPGIYELRRMPAETLYQGETEVAEMPVTKKPRMGASAGRIKGDELCVVCGDRASGYHYNALTCEGCKGFFRRSITKNAVYKCKNGGNCVMDMYMRRKCQECRLRKCKEMGMLAECMYTGLLTEIQCKSKRLRKNVKQHADQTVNEDSEGRDLRQVTSTTKSCREKTELTPDQQTLLHFIMDSYNKQRMPQEITNKILKEEFSAEENFLILTEMATNHVQVLVEFTKKLPGFQTLDHEDQIALLKGSAVEAMFLRSAEIFNKKLPSGHSDLLEERIRNSGISDEYITPMFSFYKSIGELKMTQEEYALLTAIVILSPDRQYIKDREAVEKLQEPLLDVLQKLCKIHQPENPQHFACLLGRLTELRTFNHHHAEMLMSWRVNDHKFTPLLCEIWDVQ
Q: For B1, which binding is on record?
A: Its binding is “binds”.
